## Primary screen of a compound library

Chains of the proteins cited; added tags and fusions are not shown. Residues count along the entry.
UniProt A4I591, 1-473: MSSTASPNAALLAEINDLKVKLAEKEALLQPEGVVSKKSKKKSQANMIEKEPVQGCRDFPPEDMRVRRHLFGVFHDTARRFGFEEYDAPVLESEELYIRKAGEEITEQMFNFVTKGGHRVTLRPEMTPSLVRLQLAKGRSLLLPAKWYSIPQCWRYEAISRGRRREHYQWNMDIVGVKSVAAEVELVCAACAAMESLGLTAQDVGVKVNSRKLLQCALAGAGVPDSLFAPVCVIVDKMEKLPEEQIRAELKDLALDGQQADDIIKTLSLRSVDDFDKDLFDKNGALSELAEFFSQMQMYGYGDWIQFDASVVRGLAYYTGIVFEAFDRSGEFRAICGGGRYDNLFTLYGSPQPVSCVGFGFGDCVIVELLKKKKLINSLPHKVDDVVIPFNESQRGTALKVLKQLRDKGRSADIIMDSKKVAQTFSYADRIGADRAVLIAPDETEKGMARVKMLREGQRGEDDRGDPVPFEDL
UniProt I6X8D2, whole entry: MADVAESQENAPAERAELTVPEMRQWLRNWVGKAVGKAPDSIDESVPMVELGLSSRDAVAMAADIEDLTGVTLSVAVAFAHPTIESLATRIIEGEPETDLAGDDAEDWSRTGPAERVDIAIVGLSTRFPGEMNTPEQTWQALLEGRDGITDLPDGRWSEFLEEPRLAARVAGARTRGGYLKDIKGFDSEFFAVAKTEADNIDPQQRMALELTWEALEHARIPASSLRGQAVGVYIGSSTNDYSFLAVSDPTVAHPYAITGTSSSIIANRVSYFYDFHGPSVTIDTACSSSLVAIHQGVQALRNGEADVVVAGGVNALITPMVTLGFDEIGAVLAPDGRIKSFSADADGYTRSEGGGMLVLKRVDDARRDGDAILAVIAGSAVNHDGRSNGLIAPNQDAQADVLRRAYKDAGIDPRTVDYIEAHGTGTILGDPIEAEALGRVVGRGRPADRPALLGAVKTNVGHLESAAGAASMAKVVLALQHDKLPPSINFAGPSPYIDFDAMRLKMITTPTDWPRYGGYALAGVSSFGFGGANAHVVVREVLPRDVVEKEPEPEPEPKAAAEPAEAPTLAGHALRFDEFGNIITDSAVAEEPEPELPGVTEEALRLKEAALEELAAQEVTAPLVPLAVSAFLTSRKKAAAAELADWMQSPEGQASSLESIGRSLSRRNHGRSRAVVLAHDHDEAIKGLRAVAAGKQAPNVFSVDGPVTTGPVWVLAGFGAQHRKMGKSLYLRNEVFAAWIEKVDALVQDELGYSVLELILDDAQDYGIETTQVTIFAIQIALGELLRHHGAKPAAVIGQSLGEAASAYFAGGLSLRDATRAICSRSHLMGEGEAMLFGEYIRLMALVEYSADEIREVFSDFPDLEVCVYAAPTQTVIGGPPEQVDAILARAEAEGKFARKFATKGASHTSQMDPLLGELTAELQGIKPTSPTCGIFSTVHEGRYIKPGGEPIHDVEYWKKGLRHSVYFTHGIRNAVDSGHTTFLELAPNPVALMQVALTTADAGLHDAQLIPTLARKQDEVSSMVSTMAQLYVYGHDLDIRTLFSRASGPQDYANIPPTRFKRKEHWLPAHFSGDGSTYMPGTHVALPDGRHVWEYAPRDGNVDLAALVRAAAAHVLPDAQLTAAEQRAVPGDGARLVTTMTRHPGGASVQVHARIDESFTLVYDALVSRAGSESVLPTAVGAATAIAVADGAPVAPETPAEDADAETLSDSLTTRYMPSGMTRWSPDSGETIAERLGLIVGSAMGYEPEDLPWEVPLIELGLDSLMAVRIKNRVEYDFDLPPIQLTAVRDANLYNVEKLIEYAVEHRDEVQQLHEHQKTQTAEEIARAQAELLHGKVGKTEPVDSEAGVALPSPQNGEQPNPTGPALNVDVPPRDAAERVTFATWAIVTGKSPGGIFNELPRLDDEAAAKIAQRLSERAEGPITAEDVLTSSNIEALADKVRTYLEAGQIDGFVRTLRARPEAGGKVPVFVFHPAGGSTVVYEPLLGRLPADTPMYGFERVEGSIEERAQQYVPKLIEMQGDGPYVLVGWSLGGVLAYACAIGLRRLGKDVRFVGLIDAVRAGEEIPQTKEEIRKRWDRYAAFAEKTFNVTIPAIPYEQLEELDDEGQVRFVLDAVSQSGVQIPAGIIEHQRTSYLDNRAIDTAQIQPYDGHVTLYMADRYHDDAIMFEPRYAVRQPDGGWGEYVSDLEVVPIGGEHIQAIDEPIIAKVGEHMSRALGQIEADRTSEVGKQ

Data taken from ChEMBL document CHEMBL3988442, “University of Dundee, Small-Polar-MMV Screening Library” (2021).

Results are given as percent effect. The controls that fix the scale are not given in the record; negative values are as filed. Compounds were drawn at random from those tested, without regard to their results. Two or more numbers in one place are separate tests of the same structure; such repeats can differ widely.

LiHisRS: 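Histidine-tRNA ligase, Leishmania infantum (UniProt A4I591). Enzyme assay of histidyl-tRNA synthetase; the read-out is not stated. Compounds at 30 µM. Higher reads as stronger inhibition (inferred: compounds with an IC50 in retests scored well above the rest). The assay is labelled LdHisRS but filed under L. infantum. Size under these conditions: about 69,000 compounds, about 410 of them at 50% or above in at least one test.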
Pks13 thioesterase: 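Enzyme assay of the thioesterase domain of polyketide synthase 13; the read-out is not stated. Target: Polyketide synthase Pks13, Mycobacterium tuberculosis (UniProt I6X8D2). Tested at 30 µM. The record gives no direction; the compounds picked for IC50 retests had high values, so higher reads as stronger inhibition. About 67,000 compounds were tested under these conditions; 0.46% (about 300) showed 50% or more at least once.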
Leishmania in macrophages: 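Cell assay of Leishmania donovani living inside macrophages; the read-out is not stated. Concentration: 30 µM. Direction is inferred from retests: higher values go with stronger inhibition. About 69,000 compounds were tested under these conditions; 1.5% (about 1,000) showed 50% or more at least once.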

COc1ccc(C(=O)N(C)Cc2ncc(C)c(OC)c2C)c(OC)c1 read LiHisRS: 8.264%; Pks13 thioesterase: -9.481%; Leishmania in macrophages: -6.952%.
CCc1nc2c(c(NC3CC3)n1)CCN(C(=O)Cc1nonc1C)CC2 read LiHisRS: 4.918%; Pks13 thioesterase: -10.21%; Leishmania in macrophages: 24.63%.
COc1cccc(-c2cc(C3CCCNC3)ccn2)c1 (stereo not given) read LiHisRS: 2.837%; Pks13 thioesterase: -2.455%; Leishmania in macrophages: 32.02%.
CS(=O)(=O)NCC1CCCN(C(=O)Nc2ccccc2F)C1 (stereo not given) read LiHisRS: 1.064%; Pks13 thioesterase: 3.89%; Leishmania in macrophages: -6.943%.
CC(C)CN1CCCn2nc(CNC(=O)OCc3ccccc3)cc2C1 read LiHisRS: 8.772%; Pks13 thioesterase: -33.65%; Leishmania in macrophages: 31.51%.
Cc1ccc(C(NC(=O)[C@H]2CC[C@@H](O)CC2)c2cccnc2)cc1C (stereo not given in full) read LiHisRS: 16.5%; Pks13 thioesterase: -18.83%; Leishmania in macrophages: 12.76%.
CC(C)NC(=O)c1cc2c(s1)CCN2C(=O)CN(C)C read LiHisRS: 7.692%; Pks13 thioesterase: -1.002%; Leishmania in macrophages: 22.47%.
CCOCCN1CCN(CC(=O)N2CCCC2)CC1CC (stereo not given) read LiHisRS: 17.54%; Pks13 thioesterase: -11.99%; Leishmania in macrophages: 27.42%.
Cc1cc(C(=O)NCCN2CCN(S(C)(=O)=O)CC2)no1.Cl read Leishmania in macrophages: 22.95%.
CC(C)c1nnc2n1CCN(CC(=O)N1CCc3ccccc3C1)C2 read LiHisRS: 2.4%; Pks13 thioesterase: -21.82%; Leishmania in macrophages: 0.9323%.
C=C(C)CN1CCC(C(=O)c2cc(F)ccc2F)CC1 read LiHisRS: 23.64%; Pks13 thioesterase: -15.29%; Leishmania in macrophages: 41.7%.
COCC(C)NS(=O)(=O)c1ccc(Br)cn1 (stereo not given) read LiHisRS: 10.53%; Pks13 thioesterase: -2.707%; Leishmania in macrophages: 6.293%.
O=S(=O)(NCCCn1cncn1)c1ccc2c(c1)CCCC2 read LiHisRS: 5%; Pks13 thioesterase: -15.77%; Leishmania in macrophages: -9.079%.
O=C(O)CN1CCC(C(F)(F)F)CC1 read LiHisRS: 15.79%; Pks13 thioesterase: -5.267%.
CCN1CCO[C@]2(CCC[C@H]2COCc2csc(C)n2)C1.O=C(O)C(F)(F)F.O=C(O)C(F)(F)F read Leishmania in macrophages: 4.316%.
CNC(=O)[C@H]1C[C@@H]2CCN(c3nnc(C)s3)C[C@@H]2O1 read LiHisRS: 20%; Pks13 thioesterase: -11.43%.
c1cnc(-c2nc(CNC3CCc4ncnn4C3)cs2)nc1 (stereo not given) read LiHisRS: 10.19%; Pks13 thioesterase: -18.48%; Leishmania in macrophages: 1.206%.
COCCN1C(=O)CCC12CCN(c1ncc(F)cn1)CC2.O=C(O)C(F)(F)F read Leishmania in macrophages: 0.2017% & 23.62%.
CCC1CCCCN1Cc1ncc(C(C)(C)C)o1 (stereo not given) read LiHisRS: 12.17%; Pks13 thioesterase: -19.37%; Leishmania in macrophages: -1.729%.
CCS(=O)(=O)CCNC(=O)[C@@]12CNC[C@@H]1CN(C1CCCC1)C2 read LiHisRS: 23.08%; Pks13 thioesterase: -26.9%.
Cc1nc(C)n(CC2CCCCN2CCCO)n1 (stereo not given) read LiHisRS: 6.452%; Pks13 thioesterase: -11.13%; Leishmania in macrophages: -18.17%.
O=C1CC(c2ccncc2)C2(CCN(CCc3ccccc3)CC2)N1 (stereo not given) read LiHisRS: 12.73%; Pks13 thioesterase: -14.1%.
O=C(N1CCOCC1)[C@@]12CCO[C@@H]1CCN(CC1CCCC1)C2 read LiHisRS: 12.82%; Pks13 thioesterase: 11.14%.
COc1ccc(F)cc1S(=O)(=O)N1CCN(CCn2ccnc2)CC1 read LiHisRS: 21.74%; Pks13 thioesterase: -38.8%; Leishmania in macrophages: -5.219%.
O=C1C(NS(=O)(=O)c2ccc(F)c(F)c2)CCN1Cc1ccccc1 (stereo not given) read LiHisRS: 8.475%; Pks13 thioesterase: -3.461%; Leishmania in macrophages: 3.364%.
O=C1CO[C@H]2CN(Cc3ccc4c(c3)OCO4)C[C@H]2N1 read LiHisRS: 6.757%.
Cn1ccc(CN2CCC(Oc3ccccc3)CC2)cc1=O read LiHisRS: 24.66%; Pks13 thioesterase: -3.131%; Leishmania in macrophages: 2.876%.
O=C(NCC1CCN(CCc2ccccc2)C1)c1cc(Cl)c[nH]1 (stereo not given) read LiHisRS: 19.05%; Pks13 thioesterase: 6.552%; Leishmania in macrophages: 10.91%.

The last 2 entries again:

Compound	LiHisRS	Pks13 thioesterase	Leishmania in macrophages
Cn1ccc(CN2CCC(Oc3ccccc3)CC2)cc1=O	24.66%	-3.131%	2.876%
O=C(NCC1CCN(CCc2ccccc2)C1)c1cc(Cl)c[nH]1 (stereo not given)	19.05%	6.552%	10.91%